{"source": "patent US20200046836A1", "about": "“Terpene Carrier” (priority 2015, published 2020)", "experiment": "Amount of lipophilic active ingredient that the carrier can hold in solution", "type": "physicochemical", "note": "Some results were stated once for a whole list of compounds, not compound by compound."}
{"smiles": "C=C(C)[C@@H]1CCC(C)=C[C@H]1c1c(O)cc(CCCCC)cc1O", "note": "[CBD, cannabidiol]", "values": [{"measurement": "amount of lipophilic active ingredient carried by PPG/G mixtures", "setting": "carrier propylene glycol/glycerin", "value": "less than 10 % by weight"}, {"measurement": "solubility in terpene carriers", "setting": "terpene carriers, also printed over 15%, over 20% or over 25%", "value": "greater than 10 % by weight"}]}
